Experimental data published in PubChem BioAssay AID445 (National Center for Advancing Translational Sciences (NCATS), 2006).
This is one part of the list. The main result of the screen is listed elsewhere. These columns were measured beside it and carry no call. Most of these compounds were active or inconclusive in the main read-out, so they are no random draw. Words in brackets tell the shape of the fitted curve; partial curves, single points and poor fits give uncertain potencies.

Experiment: IkB Signaling
Settings: ABC-DLBCL IkBa-CBG/CBR dual luciferase ratio (green luciferase fused to IkBa over red control in OCI-Ly3 lymphoma cells), 4 h; measured here: control luc red channel unless noted
How it was run: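 In this assay, an IκBα–CBG68 fusion accumulates when IKK-driven degradation is blocked; native CBR normalizes for cell number. OCI-Ly3 cells were treated 4 h with compound and doxycycline, then green and red light read after Chroma-Glo addition.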

Structure (SMILES)	AC50
COc1cc(/C=C/c2nc(C#N)c(N3CCCCCC3)o2)cc(OC)c1OC	12.6 µM [falling, partial curve]
Cc1cccc(C)c1NC(=O)Cn1c(=O)n(Cc2ccccc2)c(=O)c2c(C)c(C(=O)N(C)C)sc21	3.98 µM [rising, full curve]
Cc1ccc(Cl)cc1-n1c(=O)cc(N2CCN(c3ccc(F)cc3)CC2)[nH]c1=O	39.8 µM [falling, single point]
CCn1cnc2sc(C(=O)N(Cc3ccc(N(C)C)cc3)Cc3ccco3)c(C)c2c1=O	12.6 µM [falling, partial curve, poor fit]
Cc1nn(-c2ccccc2)c(C)c1C(=O)OCC(=O)c1c(N)n(CC(C)C)c(=O)n(C)c1=O	12.6 µM [falling, partial curve]
CCCCNC(=O)c1nn(-c2ccc(CC)cc2)nc1CO	25.1 µM [falling, single point]
Cc1cccc(NC(=O)C2CCN(S(=O)(=O)c3ccc(F)cc3)CC2)c1C	12.6 µM [falling, partial curve]
O=C(O)CCN1C(=O)C(=C2CCCCCC2)SC1=S	2 µM [falling, partial curve]
CCCn1c(=O)sc2cc(NC(=O)COc3ccc(Cl)cc3)ccc21	15.8 µM [falling, partial curve]
COc1cccc(CN(C(=O)c2oc3cc(C)ccc3c2C)C2CCS(=O)(=O)C2)c1 (stereo not given)	31.6 µM [falling, single point]
CCN(CC)CC(C)CNC(=O)c1cc(-c2ccc(Br)s2)nc2ccccc12 (stereo not given)	25.1 µM [falling, single point]
CCOC(=O)c1ccc(NS(=O)(=O)c2ccc3c(c2)n(C)c(=O)n3C)cc1	15.8 µM [falling, partial curve]
COc1ccc(C)cc1NC(=O)c1ccc2c(SCC(=O)O)c3c(nc2c1)CCCC3	15.8 µM [falling, partial curve]
Cn1c(=O)n(-c2ccc3c(c2)OCO3)c2nc(-c3ccccc3)nc(C(N)=O)c21	15.8 µM [rising, partial curve]
c1csc(CCNc2ncnc3sc4c(c23)CCC4)c1	15.8 µM [falling, partial curve]
COc1ccc(NC(=O)c2sc3nc[nH]c(=O)c3c2C)cc1Cl	0.00501 µM [rising, full curve, poor fit]
CCCC1=Nc2cc(C(=O)NC3CCCC3)ccc2Sc2ccc(C)cc21	794 nM [rising, full curve] [measured here: IkB-luc green channel]
Cc1cc(C)cc(NC(=O)CSc2cc(C)[nH]c(=O)n2)c1	39.8 µM [rising, single point]
COc1cc(CNC(=O)CCCC/C=C\C(C)C)ccc1O	15.8 µM [falling, partial curve]
CN(c1ccc(O)cc1)c1nc(-c2ccccc2)cs1	20 µM [falling, partial curve, poor fit]

Some of the entries so far, field by field.
Cc1ccc(Cl)cc1-n1c(=O)cc(N2CCN(c3ccc(F)cc3)CC2)[nH]c1=O
  AC50: 39.8 µM [falling, single point]
c1csc(CCNc2ncnc3sc4c(c23)CCC4)c1
  AC50: 15.8 µM [falling, partial curve]
COc1ccc(NC(=O)c2sc3nc[nH]c(=O)c3c2C)cc1Cl
  AC50: 0.00501 µM [rising, full curve, poor fit]

The list goes on.

Structure (SMILES)	AC50
Cc1c(C)c2c(cc(C)c3c(-c4ccccc4)coc32)oc1=O	6.31 µM [rising, single point]
COc1ccccc1-n1ncc2c(=O)[nH]c(SCC(=O)Nc3ccc(Cl)cc3)nc21	31.6 µM [falling, single point]
CC12CC(NC(=O)N1c1cccc(C(=O)NCc3ccc4c(c3)OCO4)c1)c1cc(Cl)ccc1O2 (stereo not given)	7.94 µM [falling, partial curve]
Cc1csc(NC(=O)CCCSc2nc3ccccc3s2)n1	15.8 µM [falling, partial curve]
COc1cccc(-n2cc(C(=O)NCCc3ccc(C)cc3)c3ccccc3c2=O)c1	31.6 µM [falling, partial curve]
COc1ccc2oc(=O)c(-c3csc(-c4ccc(Br)cc4)n3)cc2c1	15.8 µM [rising, partial curve]
COc1ccc(-c2nc3c4ccccc4n(CC(=O)N4CCN(c5ccccc5OC)CC4)c(=O)n3n2)cc1	0.631 µM [falling, full curve]
O=S(=O)(NCc1ccc(F)cc1)c1ccc(-c2cnc(C3CC3)o2)cc1	39.8 µM [falling, single point]
O=C(Nc1cccc2nsnc12)c1cccs1	15.8 µM [falling, partial curve]
Cc1ccc(C(=O)c2cn(CC(=O)NC3CCCCC3)c3nc(C)ccc3c2=O)cc1	39.8 µM [falling, single point]
Cc1c(C(=O)N2CCCC2)oc2c1-c1nn(CC(=O)NCCCOC(C)C)cc1CC2	1.58 µM [falling, partial curve]
O=C(O)CC(C(=O)O)c1cn(Cc2ccccc2)c2ccccc12 (stereo not given)	3.98 µM [rising, single point]
CCSc1nnc2c(n1)OC(c1ccc(C)cc1)N(C(C)=O)c1ccccc1-2 (stereo not given)	31.6 µM [falling, partial curve]
COc1ccc(CNC(=O)CCCN2C(=O)CSc3c2c(C)nn3-c2ccccc2)c(OC)c1	20 µM [falling, partial curve]
O=C(COc1ccc2ccccc2c1)N1CCN(c2ccccc2O)CC1	25.1 µM [falling, partial curve]
Cc1ccc(-c2[nH]c3ccccc3c2SCCNC(=O)c2ccc(S(=O)(=O)N(C)C)cc2)cc1	5.01 µM [falling, full curve]
Cc1ccc(C)c(/C(O)=C2/C(=O)C(=O)N(CCN3CCOCC3)C2c2ccco2)c1 (stereo not given)	39.8 µM [rising, single point] [measured here: IkB-luc green channel]
COc1ccc(Cl)cc1NC(=O)CCS(=O)(=O)c1cccc2nonc12	0.316 µM [falling, full curve]
Cc1ccc(NC(=O)C(=O)NCC(c2cccnc2)N2CCOCC2)cc1Cl (stereo not given)	10 µM [falling, partial curve]
Cn1nc(CC(=O)N2CCN(c3ccccc3)CC2)c2ccccc2c1=O	15.8 µM [falling, partial curve]
